Consider 37 targets from the supplement of paper PMC11006884.

What follows is the remainder of the data, with few or none of the targets with a hit. The data scatter; read single values as rough. Only a part is listed here, and it is no random draw.

Compound in the test: COC(=O)/C=C/c1ccccc1 [methyl cinnamate]
Kind of test: log2 ratio of iodoacetamide-alkyne labeling of the cysteine site, DMSO over compound (competition); higher = stronger covalent engagement of the cysteine by the compound, active = 1 or more. Conditions: 500 µM; treatment time 1 h; system: HEK293T cell lysate. The method in brief: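 Three replicates, each with duplicate channels, were prepared from HEK293T lysate (2 mg/mL) treated with vehicle or electrophile at 500 µM for 1 h at ambient temperature. Iodoacetamide alkyne was then applied for 1 h, and samples were clicked to sCIP-TMT reagents, pooled, trypsin-digested overnight at 37 °C, enriched on streptavidin, acid-eluted and analysed on Orbitrap Eclipse LC-MS/MS with FAIMS, with FragPipe quantification. The log2 competition ratio per cysteine is the mean control-channel divided by the mean compound-channel reporter intensity. Cysteines quantified in only one replicate were left out.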
Turning to AP1B1 C129 (UniProt Q10567), the “log2 ratio of iodoacetamide-alkyne labeling” value (“log2 ratio” for short) is inactive: 0.261.

For TBL3 C613 (UniProt Q12788), the “log2 ratio” value was inactive: 0.272.

With TLE1 C526 (UniProt Q04724), the “log2 ratio” value is inactive: 0.117.

Turning to GTF3C1 C1981 (UniProt Q12789), the “log2 ratio” value is inactive: 0.162.

With CHAF1A C21 (UniProt Q13111), the “log2 ratio” value is inactive: 0.284.

In the case of CEBPZ C282 (UniProt Q03701), the “log2 ratio” value is inactive: 0.14.

As to TP53BP1 C896 (UniProt Q12888), the “log2 ratio” value is inactive: -0.0806.

Take TRAF2 C182 (UniProt Q12933): the “log2 ratio” value was inactive: -0.107.

In the case of CSTF3 C646 (UniProt Q12996), the “log2 ratio” value is inactive: 0.353.

With NSUN2 C599 (UniProt Q08J23), the “log2 ratio” value is inactive: -0.0174.

As for CHAF1A C207 (UniProt Q13111), the “log2 ratio” value was inactive: 0.264.

As to AKAP12 C578 (UniProt Q02952), the “log2 ratio” value was inactive: 0.442.

Take EIF4G1 C1384 (UniProt Q04637): the “log2 ratio” value is inactive: -0.0782.

With UniProt Q02930_C80, the “log2 ratio” value was inactive: 0.593.

Consider CAMSAP2 C512 (UniProt Q08AD1), for which the “log2 ratio” value was inactive: 0.44.

Consider SF3A3 C274 (UniProt Q12874), for which the “log2 ratio” value was inactive: 0.16.

Turning to PSMD2 C459 (UniProt Q13200), the “log2 ratio” value is inactive: -0.0843.

RBPJ C68 (UniProt Q06330): the “log2 ratio” value was inactive: 0.223.

For DST C4439 (UniProt Q03001), the “log2 ratio” value was inactive: 0.331.

For the target GABPB1 C331 (UniProt Q06547), the “log2 ratio” value was inactive: 0.0466.

For the target TARDBP C50 (UniProt Q13148), the “log2 ratio” value was inactive: 0.0628.

KIF1A C609 (UniProt Q12756): the “log2 ratio” value was inactive: 0.17.

For the target UniProt Q13155_C306, the “log2 ratio” value was inactive: 0.198.

With GRSF1 C476 (UniProt Q12849), the “log2 ratio” value is inactive: 0.269.

In the case of MCL1 C16 (UniProt Q07820), the “log2 ratio” value is inactive: 0.198.

In the case of NSUN2 C93 (UniProt Q08J23), the “log2 ratio” value was inactive: 0.231.

For the target NFIA C404 (UniProt Q12857), the “log2 ratio” value is inactive: 0.163.

Consider UniProt Q08170_C61, for which the “log2 ratio” value was inactive: -0.0322.

As to PRDX4 C51 (UniProt Q13162), the “log2 ratio” value was inactive: 0.25.

With TARBP1 C24 (UniProt Q13395), the “log2 ratio” value is inactive: -0.293.

For the target NSUN2 C673 (UniProt Q08J23), the “log2 ratio” value is inactive: 0.193.

For the target IK C263 (UniProt Q13123), the “log2 ratio” value is inactive: 0.276.

Consider RBPJ C397 (UniProt Q06330), for which the “log2 ratio” value is inactive: 0.321.

With VAC14 C719 (UniProt Q08AM6), the “log2 ratio” value is inactive: -0.0396.

Consider PRDX1 C173 (UniProt Q06830), for which the “log2 ratio” value was inactive: 0.299.

Regarding AHNAK C2162 (UniProt Q09666), the “log2 ratio” value was inactive: 0.351.

As to TRIM28 C65 (UniProt Q13263), the “log2 ratio” value is inactive: -0.18.
